Results are given in words; binding and its absence hold for the method and conditions named. In cells and extracts the contact can be indirect. These calls come from enrichment with a bait or labelling near it, and not all partners need be listed. One block for each molecule: values may come before it.
Columns and labels:
[1] = target: Transient receptor potential melastatin-subfamily member 7 (TRPM7), native channel in mouse brain (mouse (endogenous in mouse brain)) (UniProt Q923J1); test: affinity purification with mass spectrometry; multi-epitope APs with anti-TRPM7 antibodies cross-linked to Dynabeads, membrane fractions of adult mouse and rat brain solubilised with CL-47 or CL-91, 2 hr on ice; controls: target-unrelated antibodies; nanoLC-MS/MS, label-free quantification
[2] = target: TRPM7, endogenous in HEK293 cells (human (endogenous in HEK293)) (UniProt Q96QT4); test: affinity purification with mass spectrometry; multi-epitope APs with anti-TRPM7 antibodies cross-linked to Dynabeads, membrane fractions of HEK293 cells solubilised with CL-47 or CL-91, 2 hr on ice; control: TRPM7-/- HEK293 cells; nanoLC-MS/MS, label-free quantification

By UniProt entry, the sequences of proteins in these tests, tags left out.
UniProt Q923J1: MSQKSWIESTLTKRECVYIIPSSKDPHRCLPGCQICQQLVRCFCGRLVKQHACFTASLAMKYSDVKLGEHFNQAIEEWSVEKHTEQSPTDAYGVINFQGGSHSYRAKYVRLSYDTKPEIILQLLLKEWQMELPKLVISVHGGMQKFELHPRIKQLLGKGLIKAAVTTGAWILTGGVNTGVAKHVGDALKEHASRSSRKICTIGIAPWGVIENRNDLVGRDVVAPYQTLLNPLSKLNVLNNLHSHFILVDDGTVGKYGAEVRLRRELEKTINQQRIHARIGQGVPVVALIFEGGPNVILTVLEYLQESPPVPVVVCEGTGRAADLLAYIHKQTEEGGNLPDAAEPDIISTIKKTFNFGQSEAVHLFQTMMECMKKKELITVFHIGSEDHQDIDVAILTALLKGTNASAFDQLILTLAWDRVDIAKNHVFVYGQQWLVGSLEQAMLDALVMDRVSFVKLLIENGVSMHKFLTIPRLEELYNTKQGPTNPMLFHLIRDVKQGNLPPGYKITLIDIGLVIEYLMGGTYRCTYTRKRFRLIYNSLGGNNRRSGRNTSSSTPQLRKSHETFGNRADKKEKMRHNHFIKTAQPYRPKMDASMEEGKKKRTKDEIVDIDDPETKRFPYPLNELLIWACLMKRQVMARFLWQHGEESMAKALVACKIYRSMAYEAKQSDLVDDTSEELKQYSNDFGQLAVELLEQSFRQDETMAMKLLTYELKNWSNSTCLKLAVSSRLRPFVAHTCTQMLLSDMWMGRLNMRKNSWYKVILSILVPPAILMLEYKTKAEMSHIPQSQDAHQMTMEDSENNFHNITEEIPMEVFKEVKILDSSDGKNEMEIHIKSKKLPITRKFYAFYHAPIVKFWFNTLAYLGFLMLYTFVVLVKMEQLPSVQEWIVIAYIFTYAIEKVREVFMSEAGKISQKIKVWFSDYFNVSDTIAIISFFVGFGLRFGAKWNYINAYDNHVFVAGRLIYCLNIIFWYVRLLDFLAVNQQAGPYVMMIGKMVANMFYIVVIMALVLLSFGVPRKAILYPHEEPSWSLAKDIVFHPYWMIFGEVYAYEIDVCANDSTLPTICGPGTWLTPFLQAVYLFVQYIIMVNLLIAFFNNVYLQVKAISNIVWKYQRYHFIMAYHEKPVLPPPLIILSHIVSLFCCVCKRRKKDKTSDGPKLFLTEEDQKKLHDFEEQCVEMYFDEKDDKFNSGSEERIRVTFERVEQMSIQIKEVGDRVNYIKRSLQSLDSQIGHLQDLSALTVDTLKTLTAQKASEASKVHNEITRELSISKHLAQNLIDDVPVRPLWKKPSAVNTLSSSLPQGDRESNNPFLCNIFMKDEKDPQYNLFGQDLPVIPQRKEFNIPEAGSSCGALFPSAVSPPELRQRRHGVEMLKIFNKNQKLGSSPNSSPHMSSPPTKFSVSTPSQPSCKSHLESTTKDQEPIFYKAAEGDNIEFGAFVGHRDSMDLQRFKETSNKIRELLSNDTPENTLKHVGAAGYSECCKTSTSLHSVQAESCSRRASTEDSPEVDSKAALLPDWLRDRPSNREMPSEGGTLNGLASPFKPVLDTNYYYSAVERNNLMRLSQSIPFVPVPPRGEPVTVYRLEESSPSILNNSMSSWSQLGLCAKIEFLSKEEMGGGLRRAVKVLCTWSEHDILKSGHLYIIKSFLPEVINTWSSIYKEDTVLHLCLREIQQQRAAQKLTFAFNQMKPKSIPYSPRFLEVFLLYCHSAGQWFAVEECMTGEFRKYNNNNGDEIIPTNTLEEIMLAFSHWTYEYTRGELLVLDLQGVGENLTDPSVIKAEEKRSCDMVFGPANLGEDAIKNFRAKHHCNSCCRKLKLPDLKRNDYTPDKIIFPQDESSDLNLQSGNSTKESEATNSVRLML
UniProt Q96QT4: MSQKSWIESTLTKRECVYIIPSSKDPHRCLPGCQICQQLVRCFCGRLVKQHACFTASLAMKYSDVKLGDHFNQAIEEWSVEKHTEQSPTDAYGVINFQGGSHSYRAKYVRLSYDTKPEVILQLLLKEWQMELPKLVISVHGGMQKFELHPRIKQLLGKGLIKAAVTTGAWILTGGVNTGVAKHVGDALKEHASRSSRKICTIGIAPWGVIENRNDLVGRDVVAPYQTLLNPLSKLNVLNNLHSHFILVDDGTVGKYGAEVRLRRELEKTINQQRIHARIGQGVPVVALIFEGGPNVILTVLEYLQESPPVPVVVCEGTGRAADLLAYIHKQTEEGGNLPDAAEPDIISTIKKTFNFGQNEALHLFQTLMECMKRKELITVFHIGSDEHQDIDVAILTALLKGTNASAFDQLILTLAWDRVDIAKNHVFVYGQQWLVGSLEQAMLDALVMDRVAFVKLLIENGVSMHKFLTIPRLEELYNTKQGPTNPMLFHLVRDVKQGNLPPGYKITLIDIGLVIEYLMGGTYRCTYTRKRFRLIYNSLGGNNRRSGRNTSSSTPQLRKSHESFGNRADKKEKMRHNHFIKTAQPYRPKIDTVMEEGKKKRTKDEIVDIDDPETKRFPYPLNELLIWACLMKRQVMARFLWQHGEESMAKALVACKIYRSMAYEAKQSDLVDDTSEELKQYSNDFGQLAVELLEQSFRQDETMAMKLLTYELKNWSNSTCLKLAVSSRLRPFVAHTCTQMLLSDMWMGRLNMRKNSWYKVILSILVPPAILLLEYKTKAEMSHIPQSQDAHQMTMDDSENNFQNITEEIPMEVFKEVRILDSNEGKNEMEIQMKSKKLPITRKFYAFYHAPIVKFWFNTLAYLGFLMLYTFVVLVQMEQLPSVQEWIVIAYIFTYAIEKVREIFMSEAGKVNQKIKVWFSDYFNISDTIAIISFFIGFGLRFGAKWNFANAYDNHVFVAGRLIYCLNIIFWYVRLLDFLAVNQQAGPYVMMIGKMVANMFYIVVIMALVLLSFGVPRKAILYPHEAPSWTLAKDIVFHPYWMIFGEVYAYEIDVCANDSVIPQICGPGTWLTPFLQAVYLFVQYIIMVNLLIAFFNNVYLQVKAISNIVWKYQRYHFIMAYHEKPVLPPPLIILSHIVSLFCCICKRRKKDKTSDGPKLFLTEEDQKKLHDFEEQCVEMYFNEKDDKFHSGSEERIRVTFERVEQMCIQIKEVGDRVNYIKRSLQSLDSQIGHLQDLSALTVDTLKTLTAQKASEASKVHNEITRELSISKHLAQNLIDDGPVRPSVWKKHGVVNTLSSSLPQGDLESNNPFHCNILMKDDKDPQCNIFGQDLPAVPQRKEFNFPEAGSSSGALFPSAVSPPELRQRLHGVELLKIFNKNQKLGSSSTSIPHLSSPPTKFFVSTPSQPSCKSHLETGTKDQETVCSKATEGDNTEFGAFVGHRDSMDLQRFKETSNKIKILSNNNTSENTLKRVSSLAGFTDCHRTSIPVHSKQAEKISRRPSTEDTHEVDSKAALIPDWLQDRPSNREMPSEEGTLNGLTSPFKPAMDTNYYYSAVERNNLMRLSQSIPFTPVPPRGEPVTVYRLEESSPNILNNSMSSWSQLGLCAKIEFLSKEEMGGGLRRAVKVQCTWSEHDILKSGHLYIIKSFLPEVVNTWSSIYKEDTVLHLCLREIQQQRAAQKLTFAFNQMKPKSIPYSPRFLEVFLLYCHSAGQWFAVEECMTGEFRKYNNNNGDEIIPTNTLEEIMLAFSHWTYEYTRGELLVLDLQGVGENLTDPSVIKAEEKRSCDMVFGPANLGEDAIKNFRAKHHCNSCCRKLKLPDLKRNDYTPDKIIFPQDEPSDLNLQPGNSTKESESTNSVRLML
UniProt Q0GA42: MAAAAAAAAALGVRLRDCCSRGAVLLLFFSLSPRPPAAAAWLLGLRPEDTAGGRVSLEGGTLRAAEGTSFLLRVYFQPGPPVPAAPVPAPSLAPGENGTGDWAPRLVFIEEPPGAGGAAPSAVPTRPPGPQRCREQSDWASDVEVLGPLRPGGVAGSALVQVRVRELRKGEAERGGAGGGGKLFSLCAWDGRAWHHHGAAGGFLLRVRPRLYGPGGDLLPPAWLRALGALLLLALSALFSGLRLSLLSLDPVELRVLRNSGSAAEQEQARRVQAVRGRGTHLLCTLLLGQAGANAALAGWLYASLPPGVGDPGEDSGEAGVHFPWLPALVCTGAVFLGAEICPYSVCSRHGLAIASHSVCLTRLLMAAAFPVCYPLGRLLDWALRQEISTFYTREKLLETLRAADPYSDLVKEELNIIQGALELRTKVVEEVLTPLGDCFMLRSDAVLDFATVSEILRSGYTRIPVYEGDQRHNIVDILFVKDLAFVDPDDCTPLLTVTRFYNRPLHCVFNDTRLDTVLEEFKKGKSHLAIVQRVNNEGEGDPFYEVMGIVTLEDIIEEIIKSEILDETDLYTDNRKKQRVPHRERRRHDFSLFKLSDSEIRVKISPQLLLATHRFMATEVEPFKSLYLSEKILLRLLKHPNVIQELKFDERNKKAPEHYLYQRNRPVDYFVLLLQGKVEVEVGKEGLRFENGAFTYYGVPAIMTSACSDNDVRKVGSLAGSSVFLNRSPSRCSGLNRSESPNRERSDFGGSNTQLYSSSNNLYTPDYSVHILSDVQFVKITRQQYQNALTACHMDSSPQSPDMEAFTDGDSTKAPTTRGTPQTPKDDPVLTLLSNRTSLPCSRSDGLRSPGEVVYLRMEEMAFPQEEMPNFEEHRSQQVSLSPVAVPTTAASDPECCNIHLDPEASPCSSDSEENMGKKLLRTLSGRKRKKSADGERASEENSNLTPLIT

Molecule: Transporter CNNM1, Cyclin-M1, endogenous in rodent brain (from UniProt Q0GA42 1-951)
binding [1]: binds

B3: Transporter CNNM2, Cyclin-M2, endogenous in rodent brain (protein, UniProt Q5U2P1 1-875)
chain: MIGCGACEPEVKMAGGQAAAALPTWKMAARRSLSARGRGVLQAAAGRLLPLLLLSCCCSAGGCTAAGENEETVIIGLRLEDTNDVSFMEGGALRVSERTRVKLRVYGQNINNETWSRIAFTEHERRRHTPGERGLGGPAPPEPDSGPQRCGIRTSDIIILPHIILNRRTSGIIEIEIKPLRKMEKSKSYYLCTSLSTPALGAGGSGSASGTVGGKGGAGVAGLPPPPWAETTWIYHDGEDTKMIVGEEKKFLLPFWLQVIFISLLLCLSGMFSGLNLGLMALDPMELRIVQNCGTEKEKNYAKRIEPVRRQGNYLLCSLLLGNVLVNTTLTILLDDIAGSGLVAVVVSTIGIVIFGEIVPQAICSRHGLAVGANTIFLTKFFMMMTFPASYPVSKLLDCVLGQEIGTVYNREKLLEMLRVTDPYNDLVKEELNIIQGALELRTKTVEDVMTPLRDCFMITGEAILDFNTMSEIMESGYTRIPVFEGERSNIVDLLFVKDLAFVDPDDCTPLKTITKFYNHPLHFVFNDTKLDAMLEEFKKGKSHLAIVQRVNNEGEGDPFYEVLGIVTLEDVIEEIIKSEILDETDLYTDNRTKKKVAHRERKQDFSAFKQTDSETKVKISPQLLLAMHRFLATEVEAFSPSQMSEKILLRLLKHPNVIQELKYDEKNKKAPECYLYQRNKPVDYFVLILQGKVEVEAGKEGMKFEASAFSYYGVMALTASPVPLSLSRTFVVSRTEVLAAGSPGENKSPPRPCGLNHSDSLSRSDRIDAMTPTLGSSNNQLSSSFLQVYIPDYSVRALSDLQFVKISRQQYQNALMASRMDKTPQSSDSENTKIELTLTEMHDGLPDETANLLNEQNCVSHNKANHSLHSEGAI
binding [1]: binds

B4: Transporter CNNM3, Cyclin-M3, endogenous in rodent brain (protein, UniProt Q32NY4 1-713)
chain: MAAAAAAVVGWLGWVLAAFCLGSTAGEAAPAPGAGLLNFCTEEDSAPGAGSLRGRAAPEATLCLRLFCSGLANSSWTWVAAEGAGCPEGGRATEPEEAAAPTGEWRALLRLRAEAGHPRSALLAVRVEPGGGAAEEAAPPWALGLGAAGLLALAAVARGLQLSALALAPAEVQVLRESGSEAERAAARRLEPARRWAGCALGALLLLASLAQAALAVLLYGAAGQRAVPAVLGCAGLVFLVGEVLPAAVSGRWALALAPRALGLSRLAVLLTLPVALPVGQLLELAARPGRLRERVLELARGGGDPYSDLSKGVLRSRTVEDVLTPLEDCFMLDSGTVLDFSVLASIMQSGHTRIPVYEEERSNIVDMLYLKDLAIVEPEDCTPLSTITRFYNHPLHFVFNDTKLDAVLEEFKRGKSHLAIVQKVNNEGEGDPFYEVLGLVTLEDVIEEIIKSEILDESEDYSDTKVRKKTVALGAPLKRKEEFSLFKVSDDEYKVKISPQLLLATQRFLSREVDVFSPLRVSEKVLLHLLKHPSVNQEVTFDESNRLAAHHYLYQRSQPVDYFILILQGRVEVEIGKEGLKFENGAFTYYGVSALTAPSSAHQSPVSSRQLIRHDVQPEPADGTRSCTYCPDYTVRALSDLQLIKVTRLQYLNALLATRAQSLPPSPENAELQAIPGSQTRLLGDKSRETAGSTNSRPSIPVEESPGRNPGV
binding [1]: binds

B5: Transporter CNNM4, Cyclin-M4, endogenous in rodent brain (protein, UniProt Q69ZF7 1-771)
chain: MAPGGGGGRRDGWPARGRLLLAALLLLWTRAASGQSSPQQSVILGMRLASCNKSCGMNPDGIIFVSEGSTVNLRLYGHSLGDISSNLISFTEVDDAEAVHNSTNCLELTKDLVVQRLVNVSRGNTSGMLVVITKFLRRSENMKLYALCTRPRADGPWTRWTDKDSLLFMVEEHGRFLPLWLHILLVMVLLVLSGIFSGLNLGLMALDPMELRIVQNCGTEKERKYARKIEPIRRKGNYLLCSLLLGNVLVNTSLTILLDNLIGSGIMAVASSTIGIVIFGEILPQALCSRHGLAVGANTIVLTKVFMLLTFPLSFPISKLLDFVLGQEIRTVYNREKLMEMLKVTEPYNDLVKEELNMIQGALELRTKTVEDIMTQLHDCFMIRSDAILDFNTMSEIMESGYTRIPVFEDEQSNIVDILYVKDLAFVDPDDCTPLKTITRFYNHPVHFVFHDTKLDAMLEEFKKGKSHLAIVQKVNNEGEGDPFYEVLGLVTLEDVIEEIIKSEILDESDMYTDNRTRKRVSVKNKRDFSAFKDTDNELKVKISPQLLLAAHRFLATEVPQFSPSLMSEKILLRLLKYPDVIQELRFNEHNRYCVRHYLYTRNKPADCFVLILQGKVEVEAGKENMKFETGAFSYYGTMALSVAPPDRSPALPTPLSRSASLSYPDRNTDLTSTSLAGSNQFGSCILGQYVSDFSVRALTDLQYIKITRQQYQNGLMASRMDNSPQPTFDGCATCSENFMERPELPPVDETTTLLNERNSLLHRASEEETI
binding [1]: binds

B7: CNNM2, endogenous in HEK293 cells (protein, UniProt Q9H8M5 1-875)
chain: MIGCGACEPKVKMAGGQAAAALPTWKMAARRSLSARGRGILQAAAGRLLPLLLLSCCCGAGGCAAVGENEETVIIGLRLEDTNDVSFMEGGALRVSERTRVKLRVYGQNINNETWSRIAFTEHERRRHSPGERGLGGPAPPEPDSGPQRCGIRTSDIIILPHIILNRRTSGIIEIEIKPLRKMEKSKSYYLCTSLSTPALGAGGSGSTGGAVGGKGGSGVAGLPPPPWAETTWIYHDGEDTKMIVGEEKKFLLPFWLQVIFISLLLCLSGMFSGLNLGLMALDPMELRIVQNCGTEKEKNYAKRIEPVRRQGNYLLCSLLLGNVLVNTTLTILLDDIAGSGLVAVVVSTIGIVIFGEIVPQAICSRHGLAVGANTIFLTKFFMMMTFPASYPVSKLLDCVLGQEIGTVYNREKLLEMLRVTDPYNDLVKEELNIIQGALELRTKTVEDVMTPLRDCFMITGEAILDFNTMSEIMESGYTRIPVFEGERSNIVDLLFVKDLAFVDPDDCTPLKTITKFYNHPLHFVFNDTKLDAMLEEFKKGKSHLAIVQRVNNEGEGDPFYEVLGIVTLEDVIEEIIKSEILDETDLYTDNRTKKKVAHRERKQDFSAFKQTDSEMKVKISPQLLLAMHRFLATEVEAFSPSQMSEKILLRLLKHPNVIQELKYDEKNKKAPEYYLYQRNKPVDYFVLILQGKVEVEAGKEGMKFEASAFSYYGVMALTASPVPLSLSRTFVVSRTELLAAGSPGENKSPPRPCGLNHSDSLSRSDRIDAVTPTLGSSNNQLNSSLLQVYIPDYSVRALSDLQFVKISRQQYQNALMASRMDKTPQSSDSENTKIELTLTELHDGLPDETANLLNEQNCVTHSKANHSLHNEGAI
binding [2]: binds

More lines, now with the values ahead:

binding [1]: binds
B1: ADP-ribosylation factor-like protein 15, endogenous in rodent brain (protein, UniProt Q8BGR6 1-204)
chain: MSDLRITEAFLYMDYLCFRALCCKGPPPARPEYDLVCIGLTGSGKTSLLSELCSESPENVVSTTGFSIKAVPFQNAVLNVKELGGADNIRKYWSRYYQGSQGVIFVLDSASSEDDLETARNELHSALQHPQLCTLPFLILANHQDKPAARSVQEIKKYFELEPLARGKRWILQPCSLDDVDTLKDSFSQLINLLEEKDHEAVRM

binding [2]: binds
B2: CNNM4, endogenous in HEK293 cells (protein, UniProt Q6P4Q7 1-775)
chain: MAPVGGGGRPVGGPARGRLLLAAPVLLVLLWALGARGQGSPQQGTIVGMRLASCNKSCGTNPDGIIFVSEGSTVNLRLYGYSLGNISSNLISFTEVDDAETLHKSTSCLELTKDLVVQQLVNVSRGNTSGVLVVLTKFLRRSESMKLYALCTRAQPDGPWLKWTDKDSLLFMVEEPGRFLPLWLHILLITVLLVLSGIFSGLNLGLMALDPMELRIVQNCGTEKERRYARKIEPIRRKGNYLLCSLLLGNVLVNTSLTILLDNLIGSGLMAVASSTIGIVIFGEILPQALCSRHGLAVGANTILLTKFFMLLTFPLSFPISKLLDFFLGQEIRTVYNREKLMEMLKVTEPYNDLVKEELNMIQGALELRTKTVEDIMTQLQDCFMIRSDAILDFNTMSEIMESGYTRIPVFEDEQSNIVDILYVKDLAFVDPDDCTPLKTITRFYNHPVHFVFHDTKLDAMLEEFKKGKSHLAIVQKVNNEGEGDPFYEVLGLVTLEDVIEEIIKSEILDESDMYTDNRSRKRVSEKNKRDFSAFKDADNELKVKISPQLLLAAHRFLATEVSQFSPSLISEKILLRLLKYPDVIQELKFDEHNKYYARHYLYTRNKPADYFILILQGKVEVEAGKENMKFETGAFSYYGTMALTSVPSDRSPAHPTPLSRSASLSYPDRTDVSTAATLAGSSNQFGSSVLGQYISDFSVRALVDLQYIKITRQQYQNGLLASRMENSPQFPIDGCTTHMENLAEKSELPVVDETTTLLNERNSLLHKASHENAI

binding [2]: binds
B6: ADP-ribosylation factor-like protein 15, endogenous in HEK293 cells (protein, UniProt Q9NXU5 1-204)
chain: MSDLRITEAFLYMDYLCFRALCCKGPPPARPEYDLVCIGLTGSGKTSLLSKLCSESPDNVVSTTGFSIKAVPFQNAILNVKELGGADNIRKYWSRYYQGSQGVIFVLDSASSEDDLEAARNELHSALQHPQLCTLPFLILANHQDKPAARSVQEIKKYFELEPLARGKRWILQPCSLDDMDALKDSFSQLINLLEEKDHEAVRM

binding [2]: binds
B8: CNNM3, endogenous in HEK293 cells (protein, UniProt Q8NE01 1-707)
chain: MAAAVAAAGRLGWLFAALCLGNAAGEAAPGPRVLGFCLEEDGAAGAGWVRGGAARDTPDATFLLRLFGPGFANSSWSWVAPEGAGCREEAASPAGEWRALLRLRLRAEAVRPHSALLAVRVEPGGGAAEEAAPPWALGLGAAGLLALAALARGLQLSALALAPAEVQVLRESGSEAERAAARRLEPARRWAGCALGALLLLASLAQAALAVLLYRAAGQRAVPAVLGSAGLVFLVGEVVPAAVSGRWTLALAPRALGLSRLAVLLTLPVALPVGQLLELAARPGRLRERVLELARGGGDPYSDLSKGVLRCRTVEDVLTPLEDCFMLDASTVLDFGVLASIMQSGHTRIPVYEEERSNIVDMLYLKDLAFVDPEDCTPLSTITRFYNHPLHFVFNDTKLDAVLEEFKRGKSHLAIVQKVNNEGEGDPFYEVLGLVTLEDVIEEIIRSEILDESEDYRDTVVKRKPASLMAPLKRKEEFSLFKVSDDEYKVTISPQLLLATQRFLSREVDVFSPLRISEKVLLHLLKHPSVNQEVRFDESNRLATHHYLYQRSQPVDYFILILQGRVEVEIGKEGLKFENGAFTYYGVSALTVPSSVHQSPVSSLQPIRHDLQPDPGDGTHSSAYCPDYTVRALSDLQLIKVTRLQYLNALLATRAQNLPQSPENTDLQVIPGSQTRLLGEKTTTAAGSSHSRPGVPVEGSPGRNPGV
